Results taken from PubChem BioAssay AID2517 (National Center for Advancing Translational Sciences (NCATS), 2010).
The whole screen tested about 350,000 compounds, of which about 1,200 (0.34%) were called active. The inconclusive results got no clear call from the source; some entries with a clear call stand among them for comparison. Calls come from the whole dose curve; as a rule, active = well fitted inhibition curve with a large enough effect; inconclusive = small, poorly fitted or top-dose-only effect; inactive = no such curve, though single readings can be large or run the other way. Potencies beside an inconclusive call are fits to weak or partial responses and may not hold up.
Note: nearly all actives have a fitted effect of over 55% in size.
Potency is the fitted concentration of half-maximal effect.
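Throughout, for activity change, negative = inhibition: plate controls were vehicle for no effect and reference inhibitor for full effect.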

Amino acid sequences for entries named in this document (tags omitted).
UniProt P27695, whole entry, looked up: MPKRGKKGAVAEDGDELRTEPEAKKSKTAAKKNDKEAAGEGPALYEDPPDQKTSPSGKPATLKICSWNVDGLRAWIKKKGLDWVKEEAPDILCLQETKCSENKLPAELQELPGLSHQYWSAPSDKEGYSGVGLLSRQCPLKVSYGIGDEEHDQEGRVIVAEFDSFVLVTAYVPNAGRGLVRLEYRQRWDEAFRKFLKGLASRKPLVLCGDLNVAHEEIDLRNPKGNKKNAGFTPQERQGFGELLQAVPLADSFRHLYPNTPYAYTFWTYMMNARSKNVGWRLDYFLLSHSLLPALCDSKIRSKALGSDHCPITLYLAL

The molecules below were run against DNA repair nuclease/redox regulator APEX1 (Homo sapiens) (UniProt P27695) (assay: qHTS Assay for Inhibitors of the Human Apurinic/apyrimidinic Endonuclease 1 (APE1)). Conditions: recombinant APE1, TAMRA/BHQ-2 abasic DNA cleavage fluorescence; activity change, negative = inhibition: at 65.8 µM (top of the series).
Summary of the method: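 Incision of a quenched TAMRA/BHQ-2 THF abasic-site duplex (50 nM) by 0.75 nM APE1, after 15 min compound preincubation, measured as fluorescence increase over three 60 s reads. Values normalized to buffer, DMSO and NSC13755 control wells.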
For `NC(=O)c1cc2ccccc2o/c1=N\NC(=O)c1ccccc1O`, the Potency was inconclusive: 3.36 µM [inhibitor, full curve]. For `O=C(O)c1cc(=O)c2c(OCC(O)COc3cccc4oc(C(=O)O)cc(=O)c34)cccc2o1`, the Potency was inconclusive: 0.631 µM [inhibitor, full curve, poor fit]. `c1ccc(CNc2ncnc3ccc(-c4ccc5c(c4)OCO5)cc23)cc1` was tested, and the “activity change, negative = inhibition” value was inactive: -5.72%. For `Cc1cccc(NC(=O)Cn2cnc3c(cnn3-c3ccc(F)cc3)c2=O)c1C`, the Potency was inconclusive: 56.2 µM [inhibitor, partial curve, poor fit]. For `CCN(CC)CCn1c2c(c(SCC(=O)Nc3nc(C)cs3)nc1=O)CCCC2`, the activity change, negative = inhibition was inconclusive: 1.52% [inhibitor]. In the case of `CCCOc1cc(C)c(S(=O)(=O)NC2CC(C)(C)NC(C)(C)C2)cc1C`, the Potency is reported as inconclusive: 11.2 µM [inhibitor, full curve, poor fit]. In the case of `CCCCC(=O)Nc1nc(C)c(-c2csc(Nc3ccccc3OC)n2)s1`, the Potency is reported as inconclusive: 0.891 µM [inhibitor, partial curve, poor fit]. For `CCc1nnc(NC(=O)CN2C(=O)/C(=C/c3cc(OC)c(OC)c(OC)c3)SC2=S)s1`, the Potency was inconclusive: 22.4 µM [inhibitor, single point]. With `CC(C)c1ccc(S(=O)(=O)c2cc3cc(Br)ccc3oc2=O)cc1` the “activity change, negative = inhibition” value was inactive: 2.96%. `O=c1cc(-c2ccccc2Cl)oc2ccc([N+](=O)[O-])c(O)c12` was tested, and the Potency was “inactive”. For `CCSCc1nc2ccccn2c1Br`, the Potency was inconclusive: 20 µM [inhibitor, single point]. In the case of `Cc1c(C(=O)O)sc2ncnc(N3CCCCC3C)c12` (stereo unspecified), the “activity change, negative = inhibition” value is reported as inactive: 0.348%. With `CCN(CC)CCNS(=O)(=O)c1ccc2[nH]cc(C(=O)O)c(=O)c2c1` the Potency was inconclusive: 25.1 µM [inhibitor, partial curve]. For `O=C(CSc1ccccn1)Nc1ccc2c(c1)C(=O)c1ccccc1C2=O`, the Potency was inconclusive: 7.94 µM [inhibitor, full curve]. For `COC(=O)CCCC1=CC2=CC(=O)C(C)(OC(=O)c3cccs3)C(=O)C2=CN1Cc1ccc2c(c1)OCO2` (stereo unspecified), the Potency was “inactive”. `C=CC1=C(C(=O)O)N2C(=O)C(NC(=O)Cc3ccccc3)C2SC1` (stereo unspecified) was tested, and the Potency was inconclusive: 39.8 µM [inhibitor, partial curve, poor fit]. In the case of `COc1cc(CCN2C(=O)N[C@@H](CCc3ccccc3)C(C(C)=O)=C2C)cc(OC)c1OC`, the Potency is reported as inconclusive: 3.55 µM [inhibitor, single point]. In the case of `Cc1cnc(CNc2ncnc3ccc(-c4cccc(C#N)c4)cc23)cn1`, the “activity change, negative = inhibition” value is reported as inactive: -1.58%. For `CC[C@@H](c1ccccc1)n1c(=O)n2n(c1=O)[C@H]1[C@H](O)[C@H]3O[C@H]3C(=O)[C@H]1CC2`, the Potency was inconclusive: 4.47 µM [inhibitor, single point]. `COc1ccc(/C=C2/SC(=O)N(CCCCCC(=O)Nc3ccccc3C(=O)O)C2=S)cc1` was tested, and the Potency was inconclusive: 44.7 µM [inhibitor, single point]. With `Nc1ccc2nc(-c3ccccn3)[nH]c2c1` the Potency was inconclusive: 44.7 µM [inhibitor, partial curve]. `COc1ccc(N/C=C(\C#N)c2nc3ccccc3n2C)c(OC)c1` was tested, and the Potency was inconclusive: 7.94 µM [inhibitor, single point]. For `CCc1ccc(NC(=O)CS(=O)CC(=O)Nc2ccc(N3CCOCC3)cc2)cc1` (stereo unspecified), the Potency was inconclusive: 16.8 µM [inhibitor, single point]. With `COC(=O)c1[nH]c2ccccc2c1NC(=O)CCN1CCN(C2CCCCC2)CC1` the “activity change, negative = inhibition” value was inactive: 5.26%. With `C[C@H](NC(=O)c1ccco1)C(=O)Nc1ccc2c(c1)OCO2` the Potency was inconclusive: 8.91 µM [inhibitor, single point]. For `CCC(C)C(NC(=O)c1ccccc1NC(=O)c1ccc(C)cc1)C(=O)O` (stereo unspecified), the Potency was inconclusive: 1 µM [inhibitor, partial curve]. For `N#Cc1ccccc1-c1ccc2ncnc(NCc3cccs3)c2c1`, the “activity change, negative = inhibition” value was inactive: 2.56%. With `O=C1/C(=C/c2cccnc2)CC/C1=C\c1cccnc1` the “activity change, negative = inhibition” value was inactive: -3.37%. For `CSc1nc(N)nc(SCC(=O)Nc2ccc(Cl)cc2)c1C#N`, the “activity change, negative = inhibition” value was inactive: -4.37%. For `CC(C)(C)OC(=O)NCCCC[C@H](NC(=O)c1[nH]cnc1C(=O)Nc1ccc(CNC(=O)OC(C)(C)C)cc1)C(=O)OC(C)(C)C`, the Potency was inconclusive: 31.6 µM [inhibitor, single point]. In the case of `CCCCCCSc1ncc(C#N)c(N)n1`, the Potency is reported as inconclusive: 25.1 µM [inhibitor, partial curve]. For `Cc1cc(C(F)(F)F)cc(NNC(=O)NC(=O)c2ccccc2Cl)n1`, the Potency was inconclusive: 8.91 µM [inhibitor, single point]. In the case of `O=C1CSC(=S)N1Cc1cccnc1`, the Potency is reported as inconclusive: 31.6 µM [inhibitor, single point]. In the case of `Cc1ccc(NC(=O)c2ccc([N+](=O)[O-])o2)cc1S(=O)(=O)N1CCOCC1`, the Potency is reported as inconclusive: 35.5 µM [inhibitor, single point]. `c1ccc(-n2nnnc2-n2ccnc2)cc1` was tested, and the Potency was inconclusive: 3.98 µM [inhibitor, partial curve]. `CC1(C)OC(c2ccccc2)=C/C(=C\C=N\NC(=O)c2ccncc2)O1` was tested, and the Potency was inconclusive: 8.91 µM [inhibitor, single point]. In the case of `O=C(CNC(=O)c1cccs1)NCC(=O)OCc1c(Cl)cccc1Cl`, the “activity change, negative = inhibition” value is reported as inactive: 9.54%. For `O=C(Cc1cccs1)Nc1nnc(SCc2ccc(C(F)(F)F)cc2)s1`, the Potency was inconclusive: 31.6 µM [inhibitor, partial curve]. `CC(C)CO/N=C1/C[C@@H](O)[C@@H](O)[C@@H]2[C@@H]3C(=O)N(c4cccc(Oc5ccccc5)c4)C(=O)[C@H]3CC[C@@H]12` was tested, and the Potency was inconclusive: 3.55 µM [inhibitor, single point]. In the case of `COc1ccc(C(=O)Nc2nc3c(s2)Cc2cc(OC)ccc2-3)cc1`, the Potency is reported as inconclusive: 44.7 µM [inhibitor, single point]. `Cc1cccc(C)c1NC(=O)Nc1ccccc1-n1ccnc1` was tested, and the Potency was inconclusive: 0.0035 µM [inhibitor, full curve, poor fit]. For `Fc1ccc(CNC(=S)Nc2cccc(C(F)(F)F)c2)cc1`, the “activity change, negative = inhibition” value was inactive: 2.86%. `COc1ccc(N2CCN(C(=O)c3cccc(S(=O)(=O)N4CCc5ccccc54)c3)CC2)cc1` was tested, and the Potency was inconclusive: 23.8 µM [inhibitor, partial curve]. With `CCCCc1ccc(NC(=S)NCCc2ccc(S(N)(=O)=O)cc2)cc1` the Potency was inconclusive: 44.7 µM [inhibitor, partial curve, poor fit]. `Cc1ccc2c(nc3s/c(=C\c4ccc(-c5ccccc5C(=O)O)o4)c(=O)n32)c1C` was tested, and the Potency was inconclusive: 23.8 µM [inhibitor, single point]. For `O=C(O)CNC(=O)c1ccc(CO)o1`, the “activity change, negative = inhibition” value was inactive: 10.7%. In the case of `CC(=O)c1ccsc1-c1c(C)cc2oc(=O)cc(-c3ccccc3)c2c1C`, the Potency is reported as “inactive”. With `O=C1NC(Cc2ccccc2)C(=O)N1CC(=O)N1CCCc2ccccc21` (stereo unspecified) the Potency was inconclusive: 7.94 µM [inhibitor, single point]. In the case of `CC(=O)Nc1ccc(NC(=O)C2C3C=CC(C3)C2C(=O)O)cc1` (stereo unspecified), the Potency is reported as inconclusive: 23.8 µM [inhibitor, single point]. With `COc1ccc(NC(=S)N2CCC(N(C)CC3CCCO3)CC2)cc1` (stereo unspecified) the Potency was inconclusive: 562 µM [inhibitor, partial curve]. In the case of `CN(CC(=O)Nc1cccc(F)c1)C(=O)c1ccc(COc2ccccc2)cc1`, the “activity change, negative = inhibition” value is reported as inactive: 27.2%. For `CCC(=O)N(CC)C1=C(O)c2ccccc2C(=O)C1=O`, the Potency was inconclusive: 0.708 µM [inhibitor, full curve]. With `Nc1nc(N)c2sc3nc(C(F)(F)F)cc(C(F)(F)F)c3c2n1` the Potency was inconclusive: 1.26 µM [inhibitor, full curve, poor fit]. `Cc1ccc(-n2nc3c(N4CCC(C(=O)NCc5cccc(F)c5)CC4)nnc(C)c3c2C)cc1` was tested, and the “activity change, negative = inhibition” value was inactive: -0.939%. In the case of `O=C(NCc1ccco1)C(=O)NCC1OCCN1S(=O)(=O)c1cc(F)ccc1F` (stereo unspecified), the Potency is reported as inconclusive: 31.6 µM [inhibitor, partial curve]. With `C[C@@H]1CC[C@]2(C(=O)O)CC[C@]3(C)C(=CCC4[C@@]5(C)C[C@@H](O)[C@H](O)[C@@](C)(CO)C5CC[C@]43C)C2[C@H]1C` (stereo partly specified) the Potency was inconclusive: 11.2 µM [inhibitor, partial curve]. With `NC(=O)[C@@H]1CCCCNc2c(I)cc([N+](=O)[O-])cc2C(=O)N[C@@H](CCC(=O)O)C(=O)N[C@@H](CO)C(=O)N1` the Potency was inconclusive: 3.98 µM [inhibitor, single point]. `Cc1ccc2nc(Cl)c(/C=N/Nc3ccc(C(=O)O)cc3)cc2c1` was tested, and the Potency was inconclusive: 44.7 µM [inhibitor, single point]. In the case of `NC(=O)c1ccsc1NC(=O)CSc1nnc2ccccn12`, the Potency is reported as inconclusive: 8.91 µM [inhibitor, partial curve, poor fit]. For `CC(=O)c1c(C)nc(Nc2nc3ccccc3s2)nc1C`, the Potency was inconclusive: 3.98 µM [inhibitor, single point]. With `COc1ccc(C(=O)NCc2ccc(Cl)c(Cl)c2)cc1OC` the “activity change, negative = inhibition” value was inactive: 2.12%. In the case of `CCOc1ccccc1-n1nnnc1SCC(=O)NC(=O)NCc1ccco1`, the Potency is reported as active: 28.2 µM. `CC(C)CC1=C/C(=C/c2ccc(-c3ccccc3)o2)C(=O)O1` was tested, and the Potency was inconclusive: 31.6 µM [inhibitor, single point]. `Cc1ccc(-c2nc(N/N=C/c3cccnc3)c3ccccc3n2)cc1` was tested, and the Potency was inconclusive: 39.8 µM [inhibitor, single point]. In the case of `COc1ccc(-c2nc3cnc(N4CCOCC4)nc3n(-c3ccc(OC)cc3)c2=O)cc1`, the Potency is reported as active: 14.1 µM. For `Nc1ccn([C@@H]2O[C@H](CO)[C@@H](O)[C@H]2O)c(=O)n1`, the “activity change, negative = inhibition” value was inactive: 15.1%.
